Reference: the supplement of paper PMC5949888
Most values lie at the floor of the assay. Slopes are relative: functional sequences can read slightly below zero.

test system: Saccharomyces cerevisiae PS128 hsf1 delta, HSF1(1-493) fusion; assay: growth estimate (transactivation domain function in HSF1 fusion, heat-shock survival) (a.u. (slope of normalised read count over time)); higher = stronger growth at 37°C, i.e. more transactivation activity; conditions: library: random library

Substance | growth estimate
DGVCMVGFGRQYGARRDVSG | < -0.25
HQVPPTKESVSYCVVRRRTP | < -0.25
SWSP | < -0.25
LLH | < -0.25
NRIRNGSYRFLLTHH | < -0.25
WQLRSSAEILPSTKAYSAIG | < -0.25
EHPVSGLTNGDVSRQSEMRC | < -0.25
CRF | < -0.25
FSSSRLQ | -0.242
PLCYRSSNI | -0.0944
VCLSRLGIFGNRSSNSSSSS | < -0.25
PVLTGIGTVRPPALYVAAQM | < -0.25
SLELDTAFEQWLAIKSC | < -0.25
AGQQIYSGSYLVVTRVPSSV | < -0.25
FLSNGLLEEGGFVYNCRHCR | < -0.25
LETGQVTRYAYRLSGTVSYA | < -0.25
VNEIICPR | < -0.25
RSVTGLGPGPNHPWRWAPGR | < -0.25
YRSSVVIEFSLKSKGCSVYG | -0.246
ARVKTS | < -0.25
LVTNSCQPRKIIGDGVRHVP | < -0.25
LLGRQHQLWQSRKRCETERG | < -0.25
PGQLLTIRSMPESWAGEFSR | < -0.25

Substance | growth estimate
TTNRSIVAVNHD | < -0.25
HDKSEYALSPGTTVKRTCPI | < -0.25
IPDVEGGDARSSTSILLTAA | < -0.25
SLRVSSGIRTHAPVVLPRIY | < -0.25
SRPFNE | < -0.25
VRSGVSVDISGRTQRVFPAW | -0.243
EEKTEMTYGIGGTARIPKCG | < -0.25
GDALAAFCLLCKWSSDNRRA | < -0.25
SEIPILRLSDAQTEACRRFA | < -0.25
SLM | < -0.25
IYR | < -0.25
LGSLDTYLGLAGAERLKLPF | < -0.25
ATERRNCMVYMDPETTSVAT | < -0.25
DKAGAGLLALATNSLRQLHG | < -0.25
VRLKRQVDRGVHIPMGNKTS | < -0.25
NLSLVFGINSPLEHWYVGLR | < -0.25
IRLLGP | < -0.25
MRHTFLRFISMCVGQGLRIA | < -0.25
IVNKRN | < -0.25
PTVEQ | < -0.25
VTRAQDLRTTEMWFIRPFAI | < -0.25
GAALGGMRCGRKGFALLSLS | < -0.25
TQEPSIRDRVASANLLVAFT | < -0.25

Substance | growth estimate
SRRCRVNVL | < -0.25
PSRSAAWDQRLIGDIGIPAH | < -0.25
LHVKLWRLSRRIVITRGQSE | < -0.25
LFMTELLRSFDGYDGATLDG | 7.7
RVG | < -0.25
TGERVFGMRTSVAREDVLLM | < -0.25
LFKVFLFPYR | < -0.25
TANHELTIGAPSSFGVKRSV | < -0.25
EGFT | < -0.25
VGMFEHHEDWRALRSVHGLG | < -0.25
IVITCAAGGTRRRVYEVLEE | < -0.25
RRLLTKGADLIRYLSLEGPT | < -0.25
VPKHRVG | < -0.25
RRSPLISNLFPRHGERRPKR | < -0.25
SAIFVFSSTGFKKRTVAGLC | < -0.25
RSRKN | < -0.25
DASTSLQQVHFF | < -0.25
LGSGAQKMAPP | -0.231
VLLLVRVGEQGIVPEERTF | < -0.25
EVGVLVKKGGS | < -0.25
IFVSRE | < -0.25
TAAYIRHMRATNPHANASAL | < -0.25
GCRTTFTSPLPLLE | < -0.25

Substance | growth estimate
WRVLEKIEIEVPGR | < -0.25
SMSTIGKGLFESIRIGRCPI | < -0.25
SHWGLMGVSDASAKVDTSRS | < -0.25
ANIVREGW | < -0.25
DPGFHSRVVCARAAHGDRSH | < -0.25
SQSLLGRGHRGIS | < -0.25
GYRRFGGSYMHRRECQHGLL | < -0.25
CHPTGTCQPRLCITGLGSQQ | < -0.25
ESRGSY | < -0.25
TLVV | < -0.25
GWM | < -0.25
LYMWFAAGFPCVRWVSVPIH | < -0.25
RIPRR | -0.25
EAYLNARLDVRRVT | < -0.25
RLGHLHIWEPAYCGFDSVAG | < -0.25
PGKLSGKGQQYL | < -0.25
IFCTPDQTPAVPEQPSADRN | < -0.25
AYGHLIGRYGFLCYPNGGGP | < -0.25
RKSKMYAGPRTARICPTDER | < -0.25
CLS | < -0.25
GVSDLCWELCVPLIASSAVM | < -0.25
SFPSCSQVLTPRERPGDVAL | < -0.25
GLSSSGTNSIGVRLHEPWRG | < -0.25

Substance | growth estimate
PAIDKAMGRFPASIPTACSQ | < -0.25
NQVTQR | -0.246
DLRGSMLRVI | < -0.25
RECVSVSTGACWCRLSPTKQ | < -0.25
DVKVHGYNHVCNHPGRVLAR | < -0.25
IGGGCSRSSCRWRSFGGYRP | < -0.25
RCSINT | < -0.25
KAETFPPE | < -0.25
ARNNVFRQGTWCSAPCDTGR | < -0.25
LNLRMSRPGNVARAPSPLES | < -0.25
LVFAINSRSIPV | < -0.25
SPVGSGNSLPSLYNIPIHC | < -0.25
MVYSEREVFLFFHLQS | < -0.25
YARGLLT | < -0.25
VSWGA | < -0.25
VTLELMLCEFRAIIYRWRNV | < -0.25
IMPIYVGYFRLGKLLDAEPL | < -0.25
SAHSACGLGRLVGQVYAYPY | < -0.25
GTNDGP | -0.245
LIAQTMLAPLTCRNGFQWLS | 0.0066
DKLQRDYAGEGYGVGIALIG | < -0.25
SCGSYSCRRPTTCQRCCSEP | -0.246
YTRTMDSARLGESWLLTQCT | < -0.25

Substance | growth estimate
GEGRREYSFGEEKYV | < -0.25
ISYCHLSRTVSFERLPTVKW | < -0.25
SLGKHATRGVGIIRGLPCTM | < -0.25
VVEGGASWWGSRIKVRAAFY | < -0.25
TCGYFFTVACKCRT | < -0.25
CSLSIRLDSNVGPSSGRSTT | < -0.25
MVPP | < -0.25
RRRWATQKT | < -0.25
GLLRHSRGESAESPRASSRP | < -0.25
LHSLTCGPVRLKTSSRAIIK | < -0.25
KLHRSIQAIKDDRLAAPACQ | < -0.25
EVGSRVS | -0.25
SPEEPGLGIVHGVTATLDSK | < -0.25
SEHS | < -0.25
GLPMSSFCNQVLLGLFSFLL | < -0.25
GSIPRVGEL | < -0.25
VSGWLLEVPHGLGESADKDP | < -0.25
ASPLFPACGTPATPNRDTET | < -0.25
GKRRCPRRELQFHGGYPRLK | < -0.25
QVVYKLLSKIRNFMPWIPGK | < -0.25
EWVEGRQLG | -0.12
TGPRVSFHLDLPYVINGPRS | < -0.25
RGGTGGLCTHFHRVGGDLDP | < -0.25

Exported in markdown: part of the list above.

| Substance | growth estimate |
| --- | --- |
| VSGWLLEVPHGLGESADKDP | < -0.25 |
| ASPLFPACGTPATPNRDTET | < -0.25 |
| GKRRCPRRELQFHGGYPRLK | < -0.25 |
| QVVYKLLSKIRNFMPWIPGK | < -0.25 |
| EWVEGRQLG | -0.12 |
| TGPRVSFHLDLPYVINGPRS | < -0.25 |
| RGGTGGLCTHFHRVGGDLDP | < -0.25 |

In a second layout: results already given.
Substance,growth estimate
SAIFVFSSTGFKKRTVAGLC,< -0.25
RKSKMYAGPRTARICPTDER,< -0.25
PAIDKAMGRFPASIPTACSQ,< -0.25

The list continues.

Substance | growth estimate
GPPQRVIQRLPLSIATDERY | < -0.25
AFCGAAEFHRTRAYMVITTY | < -0.25
CILSVLV | < -0.25
RSSRENGIESFTIRQSWARL | < -0.25
KWSAATEPTVIRYLKGDE | < -0.25
TNRG | < -0.25
PVIRGLFQVGRQVAVPVRNR | < -0.25
FSLGAS | < -0.25
DSMSCLHAATLDRSRGGVLH | < -0.25
PSLP | < -0.25
PSGFQSAEEPLGVTRNQRSS | < -0.25
GVSVFNIIASYFECLVRYFR | < -0.25
ITESIAAYVDRAWSQLCAPP | < -0.25
VPQCPGL | < -0.25
RQTTTFN | < -0.25
WCRGHGPQL | < -0.25
DQVEGQRGAVEAQDSVSTWV | < -0.25
SSRMRAKSWSRGIDVLGGHP | < -0.25
